{"source": "patent US11053205B2", "about": "“Phenazine derivatives as antimicrobial agents” (University of Florida Research Foundation, Incorporated, priority 2017, dated 2021)", "key": {"UV-Vis metal(II) binding [1]": {"experiment": "UV-Vis metal(II) binding", "assay_type": "physicochemical", "parameters": "key: UV-Vis results are reported as “Binding Y/N” for HPs; UV-Vis results are reported as “Binding Y/N” for HPs"}, "UV-Vis metal(II) binding [2]": {"experiment": "UV-Vis metal(II) binding", "assay_type": "physicochemical", "parameters": "key: UV-Vis results are reported as “Binding Y/N” for HPs; UV-Vis results are reported as “Binding Y/N” for HPs", "remark": "listed apart in the source"}, "UV-Vis metal(II) binding [3]": {"experiment": "UV-Vis metal(II) binding", "assay_type": "physicochemical", "parameters": "key: UV-Vis results are reported as “Binding Y/N” for HPs; UV-Vis results are reported as “Binding Y/N” for HPs", "remark": "listed apart in the source"}, "UV-Vis metal(II) binding [4]": {"experiment": "UV-Vis metal(II) binding", "assay_type": "physicochemical", "parameters": "key: UV-Vis results are reported as “Binding Y/N” for HPs; UV-Vis results are reported as “Binding Y/N” for HPs", "remark": "listed apart in the source"}, "HeLa cells": {"tested_on": "HeLa cells", "experiment": "LDH release assay for HeLa cytotoxicity", "conditions": "cytotoxicity IC50 divided by the MIC against MRSA-1707"}, "VRE 700221": {"tested_on": "VRE 700221", "experiment": "MIC, broth microdilution (CLSI)"}, "MRSA BAA-1707": {"tested_on": "MRSA BAA-1707", "experiment": "Metal(II)-cation co-treatment MIC assay", "assay_type": "cell-based, Staphylococcus aureus", "conditions": "zinc(II) at 200 μM"}}}
{"molecule": "Oc1cccc2cccnc12", "note": "[8-OHQ, 8-hydroxyquinoline, reference compound]", "values": [{"measurement": "Zinc(II) Binding Y/N", "setting": "UV-Vis metal(II) binding [1]", "value": "Y"}, {"measurement": "Iron(II) Binding Y/N", "setting": "UV-Vis metal(II) binding [2]", "value": "Y"}, {"measurement": "Copper(II) Binding Y/N", "setting": "UV-Vis metal(II) binding [3]", "value": "Y"}, {"measurement": "Magnesium(II) Binding Y/N", "setting": "UV-Vis metal(II) binding [4]", "value": "N"}]}
{"molecule": "Cc1ccc2nc3c(O)ccc(Br)c3nc2c1", "note": "[Compound 66A]", "values": [{"measurement": "Selectivity Index", "setting": "HeLa cells", "value": ">8"}]}
{"molecule": "Cc1cc(C)c2nc3c(Br)ccc(O)c3nc2c1", "note": "[Compound 68A]", "values": [{"measurement": "Selectivity Index", "setting": "HeLa cells", "value": ">21"}]}
{"molecule": "CCc1cccc2nc3c(O)c(Br)cc(Br)c3nc12", "note": "[HP 1-18]", "values": [{"measurement": "fold increase in antibacterial activities compared to HP 1", "setting": "VRE 700221", "value": 2, "unit": "fold"}]}
{"molecule": "Oc1c(Br)cc(Br)c2nc3ccc(Cl)cc3nc12", "note": "[HP 1-22]", "values": [{"measurement": "fold increase in antibacterial activities compared to HP 1", "setting": "VRE 700221", "value": 4, "unit": "fold"}]}
{"molecule": "COCCOCCOCCOCCOC(=O)Oc1c(Br)cc(Br)c2nc3c(C)cccc3nc12", "note": "[HP 1-25]", "values": [{"measurement": "fold reduction in MIC with zinc(II) co-treatment", "setting": "MRSA BAA-1707", "value": 67, "unit": "fold"}]}
